These are yes or no findings as the source states them, for the method shown. In cells and extracts the contact can be indirect. A yes stands for co-enrichment or nearness to the bait. Other partners may have been found.
What follows are substances tested against EML1-3DDK fusion protein (echinoderm microtubule associated protein like 1, mouse) (mouse) (UniProt Q05BC3) (assay: affinity purification with mass spectrometry; IP of EML1-3DDK from lysate of transfected HEK293 cells with anti-FLAG (DDK) M2 antibody (Pierce Crosslink Immunoprecipitation Kit); IP products of two independent experiments resolved on 10% SDS-PAGE, in-gel trypsin digestion, LC-ESI-MS/MS, search against the human UniProt database).

The chains behind the UniProt entries cited, without tags or fusion partners.
UniProt Q05BC3: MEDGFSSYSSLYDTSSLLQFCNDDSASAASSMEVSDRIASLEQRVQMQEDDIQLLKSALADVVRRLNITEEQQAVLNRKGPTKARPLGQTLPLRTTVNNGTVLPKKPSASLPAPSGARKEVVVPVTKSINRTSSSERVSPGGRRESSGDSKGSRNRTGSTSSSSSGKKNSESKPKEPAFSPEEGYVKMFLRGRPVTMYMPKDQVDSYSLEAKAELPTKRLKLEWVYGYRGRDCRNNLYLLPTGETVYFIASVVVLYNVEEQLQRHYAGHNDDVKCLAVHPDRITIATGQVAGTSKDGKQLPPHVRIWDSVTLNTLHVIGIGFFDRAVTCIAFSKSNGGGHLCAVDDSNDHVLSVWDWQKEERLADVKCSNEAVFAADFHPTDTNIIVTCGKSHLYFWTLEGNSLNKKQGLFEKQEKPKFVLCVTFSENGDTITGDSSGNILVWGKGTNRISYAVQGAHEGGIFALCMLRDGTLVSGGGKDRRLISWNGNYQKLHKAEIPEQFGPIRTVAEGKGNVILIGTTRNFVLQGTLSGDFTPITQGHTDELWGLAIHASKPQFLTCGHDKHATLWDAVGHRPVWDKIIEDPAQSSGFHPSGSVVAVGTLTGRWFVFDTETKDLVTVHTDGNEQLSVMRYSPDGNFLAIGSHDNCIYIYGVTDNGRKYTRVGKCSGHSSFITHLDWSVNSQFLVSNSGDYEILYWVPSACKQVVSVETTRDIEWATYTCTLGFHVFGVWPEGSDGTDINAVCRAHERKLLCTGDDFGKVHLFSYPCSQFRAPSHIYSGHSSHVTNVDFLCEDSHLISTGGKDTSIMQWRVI
UniProt P60953: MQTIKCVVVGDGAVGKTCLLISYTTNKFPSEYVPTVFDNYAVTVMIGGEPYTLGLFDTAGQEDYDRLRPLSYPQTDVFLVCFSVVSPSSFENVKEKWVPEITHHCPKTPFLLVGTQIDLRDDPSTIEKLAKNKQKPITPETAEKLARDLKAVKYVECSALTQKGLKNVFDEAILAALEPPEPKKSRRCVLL
UniProt Q9Y266: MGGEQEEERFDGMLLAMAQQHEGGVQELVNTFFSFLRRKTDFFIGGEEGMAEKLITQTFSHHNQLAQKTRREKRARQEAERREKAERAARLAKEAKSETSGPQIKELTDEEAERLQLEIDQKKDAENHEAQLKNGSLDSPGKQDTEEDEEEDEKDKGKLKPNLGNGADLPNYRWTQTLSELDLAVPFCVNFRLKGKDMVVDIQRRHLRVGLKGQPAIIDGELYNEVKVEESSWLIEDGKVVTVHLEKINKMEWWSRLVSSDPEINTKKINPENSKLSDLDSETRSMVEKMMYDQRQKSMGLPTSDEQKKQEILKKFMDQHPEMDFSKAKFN
UniProt P07437: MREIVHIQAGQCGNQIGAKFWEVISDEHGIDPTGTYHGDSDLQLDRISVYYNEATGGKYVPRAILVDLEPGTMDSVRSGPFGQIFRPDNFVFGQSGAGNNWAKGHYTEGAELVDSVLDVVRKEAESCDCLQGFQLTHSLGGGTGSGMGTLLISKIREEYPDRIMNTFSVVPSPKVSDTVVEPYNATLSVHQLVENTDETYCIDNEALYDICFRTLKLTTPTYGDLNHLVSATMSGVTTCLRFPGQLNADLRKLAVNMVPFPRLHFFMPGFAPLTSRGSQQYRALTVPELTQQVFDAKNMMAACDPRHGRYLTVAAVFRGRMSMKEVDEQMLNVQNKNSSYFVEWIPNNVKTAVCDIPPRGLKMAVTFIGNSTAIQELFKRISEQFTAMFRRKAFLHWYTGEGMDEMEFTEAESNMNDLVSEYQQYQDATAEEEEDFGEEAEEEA

binding, binds:
CDC42 (actin polymerization regulator) (from UniProt P60953 1-191)
NUDC (nuclear distribution C), found in the EML1-IP product (from UniProt Q9Y266 1-331)
TUBB (tubulin protein) (from UniProt P07437 1-444)

From PMC8194061
